Measurements: the supplement of paper PMC6411743
± gives the standard deviation of the averaged measurements. Some of the results follow.

Chains of the proteins cited; added tags and fusions are not shown. Lines headed by an entry give the natural chain unless they say otherwise; changes in a name come on top.
UniProt Q96DH6: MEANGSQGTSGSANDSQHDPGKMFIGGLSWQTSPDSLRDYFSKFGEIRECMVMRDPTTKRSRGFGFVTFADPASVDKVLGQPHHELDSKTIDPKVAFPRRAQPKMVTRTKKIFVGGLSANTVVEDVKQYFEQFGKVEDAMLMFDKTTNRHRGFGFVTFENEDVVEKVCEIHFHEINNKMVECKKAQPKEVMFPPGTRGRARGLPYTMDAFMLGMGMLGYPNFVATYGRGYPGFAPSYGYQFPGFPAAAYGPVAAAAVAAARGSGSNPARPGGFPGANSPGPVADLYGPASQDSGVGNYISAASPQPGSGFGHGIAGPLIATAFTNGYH
UniProt Q9NX63: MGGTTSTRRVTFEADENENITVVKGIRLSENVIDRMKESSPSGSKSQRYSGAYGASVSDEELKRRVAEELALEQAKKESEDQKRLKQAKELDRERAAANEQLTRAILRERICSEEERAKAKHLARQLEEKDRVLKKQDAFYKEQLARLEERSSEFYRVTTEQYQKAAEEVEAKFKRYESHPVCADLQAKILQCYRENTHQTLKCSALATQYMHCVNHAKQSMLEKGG
UniProt P27707: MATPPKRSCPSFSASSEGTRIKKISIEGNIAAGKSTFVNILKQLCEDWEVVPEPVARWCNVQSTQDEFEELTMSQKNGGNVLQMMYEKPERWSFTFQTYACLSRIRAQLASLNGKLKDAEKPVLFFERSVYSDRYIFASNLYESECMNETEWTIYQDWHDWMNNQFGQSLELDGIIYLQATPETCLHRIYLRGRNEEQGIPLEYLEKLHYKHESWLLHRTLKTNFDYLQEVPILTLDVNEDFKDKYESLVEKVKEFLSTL
UniProt Q16891: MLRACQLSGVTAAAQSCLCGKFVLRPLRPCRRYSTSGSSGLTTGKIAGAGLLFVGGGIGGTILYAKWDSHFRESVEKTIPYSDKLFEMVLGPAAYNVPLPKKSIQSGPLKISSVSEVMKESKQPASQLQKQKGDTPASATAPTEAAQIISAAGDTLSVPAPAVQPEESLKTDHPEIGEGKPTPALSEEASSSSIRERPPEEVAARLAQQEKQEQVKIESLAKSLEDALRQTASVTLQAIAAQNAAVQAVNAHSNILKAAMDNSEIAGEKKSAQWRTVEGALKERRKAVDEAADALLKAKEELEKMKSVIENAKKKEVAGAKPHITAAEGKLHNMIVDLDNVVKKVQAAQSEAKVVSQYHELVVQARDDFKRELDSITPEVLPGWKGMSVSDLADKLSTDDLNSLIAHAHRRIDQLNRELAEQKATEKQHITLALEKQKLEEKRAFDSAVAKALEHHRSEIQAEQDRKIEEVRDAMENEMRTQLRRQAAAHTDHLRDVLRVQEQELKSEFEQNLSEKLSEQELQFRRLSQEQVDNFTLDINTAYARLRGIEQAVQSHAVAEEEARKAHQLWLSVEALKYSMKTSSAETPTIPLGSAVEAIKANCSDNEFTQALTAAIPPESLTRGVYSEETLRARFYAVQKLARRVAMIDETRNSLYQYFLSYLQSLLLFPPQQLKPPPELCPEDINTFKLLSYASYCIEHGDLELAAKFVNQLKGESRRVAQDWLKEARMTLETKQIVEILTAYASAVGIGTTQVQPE
UniProt P08069, whole entry, looked up: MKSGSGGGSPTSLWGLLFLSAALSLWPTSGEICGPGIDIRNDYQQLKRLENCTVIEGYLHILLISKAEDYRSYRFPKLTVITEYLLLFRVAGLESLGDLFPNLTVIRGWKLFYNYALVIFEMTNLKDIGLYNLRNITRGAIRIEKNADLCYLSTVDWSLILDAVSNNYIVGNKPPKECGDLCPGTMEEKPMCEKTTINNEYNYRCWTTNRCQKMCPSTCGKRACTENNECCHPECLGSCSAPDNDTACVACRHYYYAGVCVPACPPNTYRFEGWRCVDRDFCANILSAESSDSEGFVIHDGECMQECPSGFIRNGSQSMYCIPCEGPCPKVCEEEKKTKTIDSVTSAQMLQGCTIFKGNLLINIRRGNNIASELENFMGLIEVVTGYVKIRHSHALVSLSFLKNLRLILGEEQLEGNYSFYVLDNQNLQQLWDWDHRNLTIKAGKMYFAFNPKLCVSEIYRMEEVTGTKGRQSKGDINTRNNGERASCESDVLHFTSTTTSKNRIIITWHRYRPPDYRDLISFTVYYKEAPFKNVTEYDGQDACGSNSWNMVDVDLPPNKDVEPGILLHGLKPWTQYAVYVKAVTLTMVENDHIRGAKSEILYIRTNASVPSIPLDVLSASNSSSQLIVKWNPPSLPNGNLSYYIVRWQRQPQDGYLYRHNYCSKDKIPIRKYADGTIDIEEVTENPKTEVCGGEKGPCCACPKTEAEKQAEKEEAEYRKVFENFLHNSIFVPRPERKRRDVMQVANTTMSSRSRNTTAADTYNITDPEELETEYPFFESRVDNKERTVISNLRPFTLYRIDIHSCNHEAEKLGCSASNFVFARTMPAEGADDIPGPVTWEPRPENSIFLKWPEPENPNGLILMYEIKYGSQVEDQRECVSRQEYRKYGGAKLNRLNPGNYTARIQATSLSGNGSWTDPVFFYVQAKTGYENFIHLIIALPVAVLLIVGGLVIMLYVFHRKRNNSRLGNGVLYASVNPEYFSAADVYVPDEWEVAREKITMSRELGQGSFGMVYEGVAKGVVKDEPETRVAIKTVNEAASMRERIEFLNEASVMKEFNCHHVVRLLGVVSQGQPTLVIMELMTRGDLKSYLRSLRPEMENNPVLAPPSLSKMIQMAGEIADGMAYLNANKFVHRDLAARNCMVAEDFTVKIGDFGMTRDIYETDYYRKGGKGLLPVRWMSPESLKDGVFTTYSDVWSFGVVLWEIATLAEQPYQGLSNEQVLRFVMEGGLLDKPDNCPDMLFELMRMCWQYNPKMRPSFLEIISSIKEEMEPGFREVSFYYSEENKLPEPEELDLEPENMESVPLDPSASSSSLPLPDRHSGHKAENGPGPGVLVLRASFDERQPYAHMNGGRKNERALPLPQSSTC
UniProt Q9UH65: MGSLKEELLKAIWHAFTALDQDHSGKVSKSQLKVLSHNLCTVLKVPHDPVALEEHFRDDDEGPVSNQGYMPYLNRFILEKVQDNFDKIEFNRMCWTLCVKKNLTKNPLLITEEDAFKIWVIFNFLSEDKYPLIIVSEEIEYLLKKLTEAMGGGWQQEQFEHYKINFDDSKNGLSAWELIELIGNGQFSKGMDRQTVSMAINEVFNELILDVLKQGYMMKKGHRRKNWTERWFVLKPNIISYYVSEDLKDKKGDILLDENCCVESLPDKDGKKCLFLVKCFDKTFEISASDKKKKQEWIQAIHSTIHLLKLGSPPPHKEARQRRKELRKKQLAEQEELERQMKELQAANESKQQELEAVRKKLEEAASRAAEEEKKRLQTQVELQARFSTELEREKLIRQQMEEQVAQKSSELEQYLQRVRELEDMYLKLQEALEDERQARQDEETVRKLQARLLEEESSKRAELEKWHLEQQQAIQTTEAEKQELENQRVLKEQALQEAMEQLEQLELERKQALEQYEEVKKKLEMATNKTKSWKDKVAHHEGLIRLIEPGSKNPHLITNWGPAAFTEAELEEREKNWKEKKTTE
UniProt P54277: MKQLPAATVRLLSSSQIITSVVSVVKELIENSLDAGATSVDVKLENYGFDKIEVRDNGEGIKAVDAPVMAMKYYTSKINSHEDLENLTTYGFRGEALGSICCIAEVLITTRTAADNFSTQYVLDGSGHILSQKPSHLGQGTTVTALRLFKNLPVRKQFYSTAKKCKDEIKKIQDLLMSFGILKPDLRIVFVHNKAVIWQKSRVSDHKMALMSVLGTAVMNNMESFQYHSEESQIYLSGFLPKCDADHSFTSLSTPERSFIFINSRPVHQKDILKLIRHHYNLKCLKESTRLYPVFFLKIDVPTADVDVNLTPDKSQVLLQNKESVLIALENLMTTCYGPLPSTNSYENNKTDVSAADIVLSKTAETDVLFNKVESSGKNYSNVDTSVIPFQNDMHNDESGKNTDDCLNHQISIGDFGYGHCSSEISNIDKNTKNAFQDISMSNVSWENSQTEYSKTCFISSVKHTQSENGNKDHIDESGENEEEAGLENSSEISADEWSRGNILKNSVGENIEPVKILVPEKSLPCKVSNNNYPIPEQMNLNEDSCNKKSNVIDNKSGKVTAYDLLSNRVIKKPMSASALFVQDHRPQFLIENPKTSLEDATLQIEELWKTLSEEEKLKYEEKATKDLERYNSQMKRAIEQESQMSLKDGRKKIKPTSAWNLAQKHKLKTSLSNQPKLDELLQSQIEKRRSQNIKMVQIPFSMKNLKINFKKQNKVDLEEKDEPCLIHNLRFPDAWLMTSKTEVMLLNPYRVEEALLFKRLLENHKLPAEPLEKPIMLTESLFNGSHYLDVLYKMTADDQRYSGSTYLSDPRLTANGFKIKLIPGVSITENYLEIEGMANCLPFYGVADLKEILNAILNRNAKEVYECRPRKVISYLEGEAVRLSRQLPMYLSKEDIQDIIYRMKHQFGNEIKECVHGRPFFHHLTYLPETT
UniProt Q96D46: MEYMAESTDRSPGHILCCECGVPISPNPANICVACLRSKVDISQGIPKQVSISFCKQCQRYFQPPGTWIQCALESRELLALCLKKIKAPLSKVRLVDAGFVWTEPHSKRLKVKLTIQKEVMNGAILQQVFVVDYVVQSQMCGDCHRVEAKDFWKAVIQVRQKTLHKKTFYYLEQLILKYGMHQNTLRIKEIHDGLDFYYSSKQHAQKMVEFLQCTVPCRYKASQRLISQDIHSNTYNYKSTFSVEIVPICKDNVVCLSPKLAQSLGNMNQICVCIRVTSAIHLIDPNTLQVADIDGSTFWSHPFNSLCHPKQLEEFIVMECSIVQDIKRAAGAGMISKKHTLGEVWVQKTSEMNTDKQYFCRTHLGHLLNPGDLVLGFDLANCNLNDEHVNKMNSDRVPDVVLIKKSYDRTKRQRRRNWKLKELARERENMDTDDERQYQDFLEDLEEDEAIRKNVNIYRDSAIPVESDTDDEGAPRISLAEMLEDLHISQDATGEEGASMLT
UniProt Q9NUQ7: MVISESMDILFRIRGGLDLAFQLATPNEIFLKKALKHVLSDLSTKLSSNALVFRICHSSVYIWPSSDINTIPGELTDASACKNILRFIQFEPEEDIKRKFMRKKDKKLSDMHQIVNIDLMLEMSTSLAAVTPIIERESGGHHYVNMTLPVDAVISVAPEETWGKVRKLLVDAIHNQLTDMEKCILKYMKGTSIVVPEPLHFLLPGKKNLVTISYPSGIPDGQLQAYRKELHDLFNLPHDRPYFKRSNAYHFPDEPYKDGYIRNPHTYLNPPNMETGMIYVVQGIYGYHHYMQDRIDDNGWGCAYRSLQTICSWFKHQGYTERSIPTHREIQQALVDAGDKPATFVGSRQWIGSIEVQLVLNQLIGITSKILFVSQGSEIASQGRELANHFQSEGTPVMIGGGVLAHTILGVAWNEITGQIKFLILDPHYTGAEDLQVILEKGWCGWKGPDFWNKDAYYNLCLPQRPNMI
UniProt Q9Y5N5: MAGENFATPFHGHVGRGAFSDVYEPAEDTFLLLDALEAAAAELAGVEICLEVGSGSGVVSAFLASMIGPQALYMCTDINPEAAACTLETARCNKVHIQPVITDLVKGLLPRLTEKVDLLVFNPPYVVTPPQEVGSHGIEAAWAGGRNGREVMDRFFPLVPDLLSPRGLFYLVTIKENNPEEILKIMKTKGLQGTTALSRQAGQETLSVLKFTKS

Compound: Nc1nc2c(ncn2[C@@H]2O[C@H](COP(=O)(O)OP(=O)(O)OP(=O)(O)O)[C@@H](O)[C@H]2O)c(=O)[nH]1 [guanosine triphosphate]
Assay: NP40-soluble protein abundance relative to vehicle (solubility fold change) (ratio); higher = more soluble protein in presence of GTP
Procedure, shortened: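 In three independent experiments, Jurkat crude lysate made by Dounce homogenisation was treated for 10 min at room temperature and then 3 min at 37 °C with eight concentrations ranging from 0.1 to 10 mM. It was then solubilised with 0.8% NP40 plus benzonase for 60 min at 4 °C and ultracentrifuged. The supernatant was TMT-labelled for LC-MS/MS, and each value is the fold change against the detergent-processed vehicle for the same replicate, using vsn-normalised intensities.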

| Target | NP40-soluble protein abundance (concentration: 0.1mM) | NP40-soluble protein abundance (concentration: 0.5mM) | NP40-soluble protein abundance (concentration: 1mM) | NP40-soluble protein abundance (concentration: 2mM) | NP40-soluble protein abundance (concentration: 4mM) | NP40-soluble protein abundance (concentration: 6mM) | NP40-soluble protein abundance (concentration: 8mM) | NP40-soluble protein abundance (concentration: 10mM) |
| --- | --- | --- | --- | --- | --- | --- | --- | --- |
| B4DHE8 and related entries (UniProt Q96DH6) | 0.908 ± 0.074 | 0.932 ± 0.063 | 0.891 ± 0.064 | 0.882 ± 0.058 | 0.863 ± 0.072 | 0.847 ± 0.039 | 0.823 ± 0.08 | 0.832 ± 0.09 |
| C9JRZ6 and related entries (UniProt Q9NX63) | 0.919 ± 0.081 | 0.953 ± 0.055 | 1.07 ± 0.057 | 1.06 ± 0.02 | 1.12 ± 0.035 | 1.13 ± 0.069 | 1.16 ± 0.061 | 1.15 ± 0.12 |
| B1AL05 and related entries (UniProt Q8N983) | 1.08 ± 0.21 | 1.07 ± 0.17 | 1.37 ± 0.45 | 1.75 ± 0.66 | 1.71 ± 0.69 | 1.57 ± 0.65 | 1.38 ± 0.47 | 1.59 ± 0.65 |
| D6R9C6 and related entries (UniProt P27707) | 0.995 ± 0.029 | 0.977 ± 0.014 | 0.953 ± 0.037 | 0.88 ± 0.02 | 0.875 ± 0.043 | 0.885 ± 0.041 | 0.883 ± 0.078 | 0.828 ± 0.076 |
| C9J406 and related entries (UniProt Q16891) | 0.9 ± 0.061 | 0.976 ± 0.064 | 1 ± 0.049 | 1.02 ± 0.049 | 1.04 ± 0.073 | 1.08 ± 0.084 | 1.09 ± 0.12 | 1.08 ± 0.14 |
| C9J2Y9 and related entries (UniProt P30876) | 1.09 ± 0.1 | 1.15 ± 0.15 | 1.07 ± 0.15 | 1.15 ± 0.21 | 1.12 ± 0.18 | 1.1 ± 0.18 | 1.09 ± 0.17 | 1.04 ± 0.15 |
| C9J5X1 and related entries (UniProt P08069) | 1.04 ± 0.13 | 1.04 ± 0.13 | 1.15 ± 0.11 | 0.987 ± 0.07 | 1 ± 0.086 | 1.05 ± 0.1 | 1.07 ± 0.14 | 1.04 ± 0.2 |
| E7EMB1 and related entries (UniProt Q9UH65) | 0.991 ± 0.088 | 0.994 ± 0.089 | 0.988 ± 0.12 | 0.936 ± 0.15 | 0.921 ± 0.15 | 0.934 ± 0.16 | 0.982 ± 0.084 | 0.922 ± 0.094 |
| B7ZAA0 and related entries (UniProt P54277) | 1.04 ± 0.074 | 1.11 ± 0.065 | 1.09 ± 0.13 | 1.17 ± 0.22 | 1.18 ± 0.16 | 1.15 ± 0.15 | 1.15 ± 0.11 | 1.17 ± 0.19 |
| C9IY40 and related entries (UniProt Q5T653) | 1.13 ± 0.13 | 1.21 ± 0.24 | 1.28 ± 0.3 | 1.41 ± 0.47 | 1.39 ± 0.45 | 1.35 ± 0.43 | 1.32 ± 0.43 | 1.32 ± 0.41 |
| C9JA08 and related entries (UniProt Q96D46) | 1.107 ± 0.00068 | 1.1 ± 0.11 | 0.975 ± 0.075 | 0.939 ± 0.031 | 0.827 ± 0.067 | 0.874 ± 0.035 | 0.79 ± 0.12 | 0.777 ± 0.21 |
| D6RGX2 and related entries (UniProt Q9NUQ7) | 0.942 ± 0.024 | 0.9343 ± 4.9e-05 | 0.881 ± 0.025 | 0.881 ± 0.03 | 0.843 ± 0.065 | 0.825 ± 0.016 | 0.872 ± 0.094 | 0.807 ± 0.12 |
| B2RA97 and related entries (UniProt Q9Y5N5) | 1.04 ± 0.22 | 1.05 ± 0.074 | 0.958 ± 0.16 | 1.01 ± 0.18 | 0.898 ± 0.14 | 0.967 ± 0.14 | 0.927 ± 0.16 | 0.899 ± 0.13 |

Laid out differently: entries from further up.
Target,NP40-soluble protein abundance (concentration: 0.1mM),NP40-soluble protein abundance (concentration: 0.5mM),NP40-soluble protein abundance (concentration: 1mM),NP40-soluble protein abundance (concentration: 2mM),NP40-soluble protein abundance (concentration: 4mM),NP40-soluble protein abundance (concentration: 6mM),NP40-soluble protein abundance (concentration: 8mM),NP40-soluble protein abundance (concentration: 10mM)
C9JRZ6 and related entries (UniProt Q9NX63),0.919 ± 0.081,0.953 ± 0.055,1.07 ± 0.057,1.06 ± 0.02,1.12 ± 0.035,1.13 ± 0.069,1.16 ± 0.061,1.15 ± 0.12
B1AL05 and related entries (UniProt Q8N983),1.08 ± 0.21,1.07 ± 0.17,1.37 ± 0.45,1.75 ± 0.66,1.71 ± 0.69,1.57 ± 0.65,1.38 ± 0.47,1.59 ± 0.65
